Measurements from paper PMC4838231.
No constants are given. Whether binding was seen depends on the method and setting. For some assays here: In cells and extracts the contact can be indirect. Some binding calls cover weakened binding; strength is not graded here. Tags and fused reporters may be left off the sequences shown. Each block holds one molecule with its values, some of them ahead of it.

Protein sequences, listed by entry. Tags and fused reporters are not part of them. Residues count along the entry.
UniProt P29311, residues 5-267: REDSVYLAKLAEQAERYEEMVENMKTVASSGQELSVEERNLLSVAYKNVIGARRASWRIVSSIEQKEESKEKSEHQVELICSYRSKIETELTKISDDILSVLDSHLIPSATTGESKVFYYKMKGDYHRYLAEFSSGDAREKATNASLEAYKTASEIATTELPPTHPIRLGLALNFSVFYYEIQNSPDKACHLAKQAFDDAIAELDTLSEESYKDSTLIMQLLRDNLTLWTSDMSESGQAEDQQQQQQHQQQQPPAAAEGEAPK

Columns and labels:
[1] = target: T1, Kin2-NT-KD (kinase-dead Kin2-NT, lysine 128 replaced by methionine), Gal4 DNA-binding domain fusion (S. cerevisiae) (UniProt P13186); experiment: two-hybrid; directed assay: pJ69-4α with pGBDU-C1-based baits mated with pJ69-4A with pOAD- or pGAD-based preys; growth of diploids on SC-Leu-Ura-His (with 3 mM 3-AT for Bmh1) or SC-Leu-Ura-Ade at 30°C for 3 days
T1 sequence: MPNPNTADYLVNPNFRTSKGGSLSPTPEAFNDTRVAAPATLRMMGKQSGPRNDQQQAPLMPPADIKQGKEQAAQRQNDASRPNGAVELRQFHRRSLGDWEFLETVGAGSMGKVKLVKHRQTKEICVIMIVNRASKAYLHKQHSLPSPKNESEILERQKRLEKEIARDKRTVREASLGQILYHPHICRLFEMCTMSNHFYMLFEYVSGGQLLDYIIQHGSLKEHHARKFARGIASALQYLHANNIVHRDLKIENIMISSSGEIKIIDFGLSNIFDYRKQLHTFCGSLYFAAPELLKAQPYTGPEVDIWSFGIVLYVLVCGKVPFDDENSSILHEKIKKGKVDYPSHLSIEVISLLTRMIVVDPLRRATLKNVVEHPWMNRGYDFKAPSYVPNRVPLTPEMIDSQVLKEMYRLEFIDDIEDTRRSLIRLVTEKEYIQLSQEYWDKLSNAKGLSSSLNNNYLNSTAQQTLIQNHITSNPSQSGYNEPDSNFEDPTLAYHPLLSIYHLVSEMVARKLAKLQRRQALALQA

[2] = target: T2, Kin2-NT (a.a. 1–526), Gal4 DNA-binding domain fusion (S. cerevisiae) (UniProt P13186); experiment: as above
T2 sequence: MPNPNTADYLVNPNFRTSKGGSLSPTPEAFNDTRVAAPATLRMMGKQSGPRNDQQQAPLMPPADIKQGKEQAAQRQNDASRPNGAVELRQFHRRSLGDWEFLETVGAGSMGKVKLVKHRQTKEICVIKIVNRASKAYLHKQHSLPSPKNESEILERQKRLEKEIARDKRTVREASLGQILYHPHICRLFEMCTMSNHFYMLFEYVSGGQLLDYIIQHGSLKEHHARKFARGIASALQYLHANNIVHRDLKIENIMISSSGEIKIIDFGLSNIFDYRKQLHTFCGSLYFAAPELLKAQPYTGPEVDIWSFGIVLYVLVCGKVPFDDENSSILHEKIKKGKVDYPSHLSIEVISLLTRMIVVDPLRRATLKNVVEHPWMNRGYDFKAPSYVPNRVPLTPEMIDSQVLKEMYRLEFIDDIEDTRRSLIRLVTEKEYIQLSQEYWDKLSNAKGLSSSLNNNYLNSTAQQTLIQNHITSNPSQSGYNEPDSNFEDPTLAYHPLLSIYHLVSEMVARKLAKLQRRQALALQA

[3] = target: T3, Kin2 (full-length, Gal4 DNA-binding domain fusion from pGBDU-KIN2) (S. cerevisiae) (UniProt P13186); experiment: two-hybrid; library screens in yeast strain pJ69-4A or pJ69-4α with a pOAD-cDNA prey library; baits in pGBDU (Gal4 DBD); selection on SC-Leu-Ura-His with 3 mM 3-AT at 30°C, then SC-Leu-Ura-Ade; inserts sequenced
T3 sequence: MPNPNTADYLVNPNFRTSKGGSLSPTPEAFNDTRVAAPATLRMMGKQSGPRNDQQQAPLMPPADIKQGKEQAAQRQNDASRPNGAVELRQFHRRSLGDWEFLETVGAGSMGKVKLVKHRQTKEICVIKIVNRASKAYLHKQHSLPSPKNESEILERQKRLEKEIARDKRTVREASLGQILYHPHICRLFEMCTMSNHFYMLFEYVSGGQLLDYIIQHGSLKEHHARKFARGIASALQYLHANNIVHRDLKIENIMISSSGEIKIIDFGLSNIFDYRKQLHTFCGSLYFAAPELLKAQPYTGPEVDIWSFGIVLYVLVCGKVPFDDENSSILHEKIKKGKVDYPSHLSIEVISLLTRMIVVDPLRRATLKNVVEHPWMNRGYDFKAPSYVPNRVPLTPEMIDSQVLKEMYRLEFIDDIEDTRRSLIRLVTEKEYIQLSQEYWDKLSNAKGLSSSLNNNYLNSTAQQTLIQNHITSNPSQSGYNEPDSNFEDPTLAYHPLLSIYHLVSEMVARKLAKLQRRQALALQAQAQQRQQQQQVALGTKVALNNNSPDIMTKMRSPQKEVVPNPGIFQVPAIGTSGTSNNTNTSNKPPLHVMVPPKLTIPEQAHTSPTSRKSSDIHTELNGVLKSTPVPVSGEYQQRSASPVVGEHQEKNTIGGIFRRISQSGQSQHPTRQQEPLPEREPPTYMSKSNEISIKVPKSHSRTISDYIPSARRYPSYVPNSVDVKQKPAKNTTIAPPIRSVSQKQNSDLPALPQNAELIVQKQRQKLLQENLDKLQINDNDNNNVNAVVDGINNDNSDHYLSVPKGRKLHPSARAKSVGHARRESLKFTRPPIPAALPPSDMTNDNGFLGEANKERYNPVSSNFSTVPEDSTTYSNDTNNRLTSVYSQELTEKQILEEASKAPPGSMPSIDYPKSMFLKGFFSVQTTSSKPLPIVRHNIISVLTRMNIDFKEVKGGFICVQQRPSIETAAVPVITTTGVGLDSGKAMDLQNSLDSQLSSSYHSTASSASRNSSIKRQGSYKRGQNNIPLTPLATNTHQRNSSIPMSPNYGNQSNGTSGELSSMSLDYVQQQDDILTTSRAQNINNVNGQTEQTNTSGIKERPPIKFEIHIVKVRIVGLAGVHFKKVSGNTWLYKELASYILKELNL

[4] = target: T4, Kin2-Δ42 (Gal4 DNA-binding domain fusion from pGBDU-KIN2-Δ42) (S. cerevisiae) (UniProt P13186); experiment: two-hybrid; directed assay: pJ69-4α with pGBDU-C1-based baits mated with pJ69-4A with pOAD- or pGAD-based preys; growth of diploids on SC-Leu-Ura-His (with 3 mM 3-AT for Bmh1) or SC-Leu-Ura-Ade at 30°C for 3 days
T4 sequence: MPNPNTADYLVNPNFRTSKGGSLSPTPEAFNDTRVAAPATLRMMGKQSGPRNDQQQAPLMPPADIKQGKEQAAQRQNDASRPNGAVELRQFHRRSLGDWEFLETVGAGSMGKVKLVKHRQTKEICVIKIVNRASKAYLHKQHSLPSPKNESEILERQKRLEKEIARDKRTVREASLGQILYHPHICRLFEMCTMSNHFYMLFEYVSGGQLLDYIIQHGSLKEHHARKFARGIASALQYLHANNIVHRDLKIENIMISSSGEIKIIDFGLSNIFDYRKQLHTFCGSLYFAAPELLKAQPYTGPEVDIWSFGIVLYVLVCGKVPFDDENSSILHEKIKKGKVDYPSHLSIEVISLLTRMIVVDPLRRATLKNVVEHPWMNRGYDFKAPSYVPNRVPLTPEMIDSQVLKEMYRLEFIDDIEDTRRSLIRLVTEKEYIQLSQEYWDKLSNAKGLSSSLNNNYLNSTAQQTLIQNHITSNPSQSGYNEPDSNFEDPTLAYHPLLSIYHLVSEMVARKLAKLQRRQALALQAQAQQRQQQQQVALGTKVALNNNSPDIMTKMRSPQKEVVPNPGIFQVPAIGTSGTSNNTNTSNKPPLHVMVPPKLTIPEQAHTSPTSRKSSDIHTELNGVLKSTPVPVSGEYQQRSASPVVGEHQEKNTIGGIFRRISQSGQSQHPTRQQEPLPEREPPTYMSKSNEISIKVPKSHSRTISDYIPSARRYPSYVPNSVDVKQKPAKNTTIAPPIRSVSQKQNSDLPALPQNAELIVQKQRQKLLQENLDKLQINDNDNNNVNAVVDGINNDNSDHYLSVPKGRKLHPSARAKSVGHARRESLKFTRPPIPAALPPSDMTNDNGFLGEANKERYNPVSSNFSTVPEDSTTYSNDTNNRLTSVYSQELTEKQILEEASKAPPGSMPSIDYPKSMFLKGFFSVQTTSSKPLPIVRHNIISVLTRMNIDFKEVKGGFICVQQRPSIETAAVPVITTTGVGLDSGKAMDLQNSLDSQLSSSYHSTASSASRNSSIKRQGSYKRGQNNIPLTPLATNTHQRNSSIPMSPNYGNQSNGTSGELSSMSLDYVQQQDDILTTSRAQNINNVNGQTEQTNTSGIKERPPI

[5] = target: T5, Kin2-C6 (a.a. 780–1147), Venus-C fusion from pVC1-KIN2-C6 (S. cerevisiae) (UniProt P13186); experiment: split reporter; BiFC with Venus-N (pVN1) and Venus-C (pVC1) fusions under the MET25 promoter in strain JGY3088 (kin1Δ kin2Δ); SC-His-Ura plate, 30°C, 16 hr; green fluorescence by microscopy
T5 sequence: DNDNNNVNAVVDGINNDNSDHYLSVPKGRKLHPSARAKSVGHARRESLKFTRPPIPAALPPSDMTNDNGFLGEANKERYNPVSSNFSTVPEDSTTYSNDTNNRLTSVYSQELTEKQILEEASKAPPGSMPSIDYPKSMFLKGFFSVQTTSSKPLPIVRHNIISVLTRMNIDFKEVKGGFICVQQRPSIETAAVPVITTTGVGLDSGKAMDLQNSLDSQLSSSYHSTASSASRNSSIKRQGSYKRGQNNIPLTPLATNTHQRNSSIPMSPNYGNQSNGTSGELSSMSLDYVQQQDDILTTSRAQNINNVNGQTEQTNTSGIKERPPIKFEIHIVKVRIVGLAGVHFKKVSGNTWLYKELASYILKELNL

binding [1]: binds
binding [2]: binds
binding [3]: binds
Molecule: Bmh1^5-267 (N-terminally truncated Bmh1), Gal4 activation domain fusion from pOAD (from UniProt P29311 5-267) (domain or fragment)

binding [4]: binds
B1: Pea2 (Gal4 activation domain fusion from pGAD-PEA2) (protein, UniProt P40091 1-420)
chain: MHKFDLELSRRANPLLFSAERYEEYPLKYDELKQYLLSQNPSHPHHNSRPYTSIDYFDYLLYRSKNDESEIDLDKKLVSEFALYYVQKEHLNSDDLNPTLNELLKLQPKSADWYEMMLRILESINTTGIDQLTKENNNSFPNSKRARSSTNMGGTDKFNKGAYHTDKADDDKNEILQELTSFLMSNSIQKGIDIKPIPLDDPVKFLKNGINSILDTCVSLEKNTSSPPISPNAAAIQEEDSSKKLEELETAFSDLQLAHNFLTKQFENDRAEYVQDIEKLTRTNRELQDKLLNNHSNLSKTEKKLHELEQENKELEKANNKLNSSRHNFGMSSPASSPVTWDPSSPSSVGSPTSGSGSRSLSIMTSEFKKVLTSTQRKYEKELSDEREHRFKLERELALLKNAEANTSLALNRDDPPDML

binding [5]: binds
B2: Pea2 (Venus-N fusion from pVN1-PEA2) (protein, UniProt P40091 1-420)
chain: MHKFDLELSRRANPLLFSAERYEEYPLKYDELKQYLLSQNPSHPHHNSRPYTSIDYFDYLLYRSKNDESEIDLDKKLVSEFALYYVQKEHLNSDDLNPTLNELLKLQPKSADWYEMMLRILESINTTGIDQLTKENNNSFPNSKRARSSTNMGGTDKFNKGAYHTDKADDDKNEILQELTSFLMSNSIQKGIDIKPIPLDDPVKFLKNGINSILDTCVSLEKNTSSPPISPNAAAIQEEDSSKKLEELETAFSDLQLAHNFLTKQFENDRAEYVQDIEKLTRTNRELQDKLLNNHSNLSKTEKKLHELEQENKELEKANNKLNSSRHNFGMSSPASSPVTWDPSSPSSVGSPTSGSGSRSLSIMTSEFKKVLTSTQRKYEKELSDEREHRFKLERELALLKNAEANTSLALNRDDPPDML
